The target in this test is N-cadherin (UniProt P15116). Kind of test: cell aggregation assay; K562 cells individually expressing the indicated FRET constructs and N-cadherin, co-cultured.

Sequences of proteins named here, by UniProt entry; tags and fusion partners are left off. Residues count along the entry.
UniProt P15116, residues 160-906: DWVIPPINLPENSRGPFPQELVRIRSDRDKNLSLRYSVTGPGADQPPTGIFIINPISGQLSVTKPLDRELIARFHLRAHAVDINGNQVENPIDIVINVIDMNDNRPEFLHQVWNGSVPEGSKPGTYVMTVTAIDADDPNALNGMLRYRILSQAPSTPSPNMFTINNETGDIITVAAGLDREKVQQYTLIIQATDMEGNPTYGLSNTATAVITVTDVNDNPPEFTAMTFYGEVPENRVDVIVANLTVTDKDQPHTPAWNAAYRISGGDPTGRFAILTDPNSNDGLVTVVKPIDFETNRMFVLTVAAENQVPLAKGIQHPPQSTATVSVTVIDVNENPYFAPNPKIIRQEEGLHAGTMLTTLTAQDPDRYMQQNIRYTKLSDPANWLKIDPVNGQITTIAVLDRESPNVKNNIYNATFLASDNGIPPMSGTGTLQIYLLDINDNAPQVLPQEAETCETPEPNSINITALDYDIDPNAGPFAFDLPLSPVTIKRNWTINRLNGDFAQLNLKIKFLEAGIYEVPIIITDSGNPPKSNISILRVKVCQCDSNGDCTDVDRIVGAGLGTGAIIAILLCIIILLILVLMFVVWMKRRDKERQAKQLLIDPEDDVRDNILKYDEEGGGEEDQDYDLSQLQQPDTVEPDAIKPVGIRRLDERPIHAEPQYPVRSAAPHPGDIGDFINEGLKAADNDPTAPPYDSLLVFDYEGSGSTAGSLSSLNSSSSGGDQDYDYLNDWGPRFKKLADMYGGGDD

Results are given in words; binding and its absence hold for the method and conditions named. Some entries that bind do so weakly or less than the wild type.

“N-cadherin (from UniProt P15116 160-906) (receptor)”: the binding result is reported as “binds”.

Source of the values: paper PMC8593154.
